Experimental data as given in the supplement of paper PMC12823440, “Inhibitors supercharge kinase turnover through native proteolytic circuits” (Nature, 2025).
Where a name gives a salt, the structure may show the parent alone. The list shows a part of the results. The calls rarely recur for the same compound in another form.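 Kinases, fused to nanoluciferase, were expressed in K562 cells; luminescence was measured every 4 h from 2 to 18 h as percent of control (DMSO = 100%, positive control = 0%). A time point is decreased if signal falls significantly (2 sigma). Hits were called by the authors by a rule that is not shown; the count of time points alone does not decide it.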

The chains behind the UniProt entries cited, without tags or fusion partners. Where a name states a change or a piece, a line headed by the entry shows the natural chain unless it says otherwise.
UniProt P23458: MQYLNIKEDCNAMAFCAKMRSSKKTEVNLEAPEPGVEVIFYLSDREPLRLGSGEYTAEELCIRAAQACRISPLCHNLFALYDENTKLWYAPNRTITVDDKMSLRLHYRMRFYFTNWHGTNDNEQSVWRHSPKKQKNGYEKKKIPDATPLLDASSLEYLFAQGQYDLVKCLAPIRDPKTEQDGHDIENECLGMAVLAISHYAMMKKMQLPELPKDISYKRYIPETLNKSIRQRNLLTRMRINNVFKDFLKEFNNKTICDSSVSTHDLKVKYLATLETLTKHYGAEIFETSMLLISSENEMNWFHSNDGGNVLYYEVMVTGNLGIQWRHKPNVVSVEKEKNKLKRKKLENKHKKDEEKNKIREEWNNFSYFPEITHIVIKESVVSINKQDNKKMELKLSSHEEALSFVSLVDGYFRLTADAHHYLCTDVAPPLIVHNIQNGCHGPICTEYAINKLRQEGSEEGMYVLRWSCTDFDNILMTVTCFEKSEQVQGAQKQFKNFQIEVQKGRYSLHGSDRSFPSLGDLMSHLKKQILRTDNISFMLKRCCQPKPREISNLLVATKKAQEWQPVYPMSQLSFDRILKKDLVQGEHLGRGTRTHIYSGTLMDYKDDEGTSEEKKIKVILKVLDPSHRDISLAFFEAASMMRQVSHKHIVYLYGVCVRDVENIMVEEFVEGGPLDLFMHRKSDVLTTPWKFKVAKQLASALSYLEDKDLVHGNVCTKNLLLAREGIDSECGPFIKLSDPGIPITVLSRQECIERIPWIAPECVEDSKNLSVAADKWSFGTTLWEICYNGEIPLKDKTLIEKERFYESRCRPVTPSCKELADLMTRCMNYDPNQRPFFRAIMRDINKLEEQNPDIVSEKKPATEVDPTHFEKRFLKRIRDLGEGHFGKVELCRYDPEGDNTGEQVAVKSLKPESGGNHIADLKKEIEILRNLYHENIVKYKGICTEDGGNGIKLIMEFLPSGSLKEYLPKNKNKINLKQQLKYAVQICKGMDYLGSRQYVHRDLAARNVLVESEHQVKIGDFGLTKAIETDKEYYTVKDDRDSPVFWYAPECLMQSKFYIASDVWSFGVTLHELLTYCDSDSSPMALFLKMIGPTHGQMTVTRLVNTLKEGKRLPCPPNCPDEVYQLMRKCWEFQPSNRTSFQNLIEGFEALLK
UniProt P53671: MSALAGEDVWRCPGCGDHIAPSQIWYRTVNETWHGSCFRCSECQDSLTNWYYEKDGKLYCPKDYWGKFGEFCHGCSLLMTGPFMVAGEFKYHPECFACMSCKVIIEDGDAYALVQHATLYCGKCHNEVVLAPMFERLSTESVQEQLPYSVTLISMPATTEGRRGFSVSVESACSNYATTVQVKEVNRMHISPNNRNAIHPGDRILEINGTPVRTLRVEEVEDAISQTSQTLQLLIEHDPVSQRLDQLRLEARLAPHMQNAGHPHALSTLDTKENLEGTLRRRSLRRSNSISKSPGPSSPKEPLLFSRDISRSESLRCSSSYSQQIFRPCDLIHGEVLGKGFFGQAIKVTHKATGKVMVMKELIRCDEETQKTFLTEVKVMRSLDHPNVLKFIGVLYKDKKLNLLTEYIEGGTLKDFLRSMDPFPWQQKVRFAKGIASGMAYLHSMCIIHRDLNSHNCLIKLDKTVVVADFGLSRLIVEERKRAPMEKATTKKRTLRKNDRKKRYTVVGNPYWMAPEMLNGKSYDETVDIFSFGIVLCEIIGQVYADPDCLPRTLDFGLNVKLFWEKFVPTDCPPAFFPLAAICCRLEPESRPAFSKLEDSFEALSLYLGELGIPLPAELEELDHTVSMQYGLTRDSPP
UniProt Q8IWU2: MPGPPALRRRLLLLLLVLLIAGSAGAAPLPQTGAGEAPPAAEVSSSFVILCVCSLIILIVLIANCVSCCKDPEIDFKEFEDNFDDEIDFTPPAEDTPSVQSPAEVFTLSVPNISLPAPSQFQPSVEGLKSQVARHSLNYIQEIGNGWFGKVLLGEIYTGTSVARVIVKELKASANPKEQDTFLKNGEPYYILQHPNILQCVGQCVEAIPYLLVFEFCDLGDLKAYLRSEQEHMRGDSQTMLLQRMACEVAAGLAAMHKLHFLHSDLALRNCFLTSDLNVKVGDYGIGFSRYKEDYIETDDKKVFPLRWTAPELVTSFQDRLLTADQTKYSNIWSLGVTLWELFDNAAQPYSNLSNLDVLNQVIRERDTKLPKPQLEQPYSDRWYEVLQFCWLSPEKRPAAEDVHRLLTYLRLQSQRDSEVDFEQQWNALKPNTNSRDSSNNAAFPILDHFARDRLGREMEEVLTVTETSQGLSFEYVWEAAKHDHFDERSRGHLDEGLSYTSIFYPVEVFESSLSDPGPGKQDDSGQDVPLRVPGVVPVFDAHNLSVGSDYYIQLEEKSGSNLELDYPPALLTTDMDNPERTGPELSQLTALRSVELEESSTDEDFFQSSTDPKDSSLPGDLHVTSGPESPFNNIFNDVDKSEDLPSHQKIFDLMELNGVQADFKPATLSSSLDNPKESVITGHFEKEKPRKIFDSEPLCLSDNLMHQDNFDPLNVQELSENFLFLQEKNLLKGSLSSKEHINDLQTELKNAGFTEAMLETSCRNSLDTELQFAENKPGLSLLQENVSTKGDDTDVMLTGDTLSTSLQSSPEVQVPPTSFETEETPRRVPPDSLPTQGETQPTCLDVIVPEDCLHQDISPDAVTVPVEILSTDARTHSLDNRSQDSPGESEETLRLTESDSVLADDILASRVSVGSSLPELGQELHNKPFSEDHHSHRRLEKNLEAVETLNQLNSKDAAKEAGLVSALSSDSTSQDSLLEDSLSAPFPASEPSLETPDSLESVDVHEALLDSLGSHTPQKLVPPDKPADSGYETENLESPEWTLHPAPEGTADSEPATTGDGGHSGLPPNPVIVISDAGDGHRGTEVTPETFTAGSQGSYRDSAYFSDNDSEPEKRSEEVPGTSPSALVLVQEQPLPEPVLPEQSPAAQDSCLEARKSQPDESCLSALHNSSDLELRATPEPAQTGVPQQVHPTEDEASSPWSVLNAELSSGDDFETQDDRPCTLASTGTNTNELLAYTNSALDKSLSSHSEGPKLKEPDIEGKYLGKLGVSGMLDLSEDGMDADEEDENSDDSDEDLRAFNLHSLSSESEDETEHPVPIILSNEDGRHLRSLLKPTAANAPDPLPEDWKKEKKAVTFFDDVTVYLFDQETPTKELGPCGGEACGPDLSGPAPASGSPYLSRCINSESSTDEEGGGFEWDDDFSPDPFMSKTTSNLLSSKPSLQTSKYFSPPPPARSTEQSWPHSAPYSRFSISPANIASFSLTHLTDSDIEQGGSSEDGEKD
UniProt P31152, whole entry: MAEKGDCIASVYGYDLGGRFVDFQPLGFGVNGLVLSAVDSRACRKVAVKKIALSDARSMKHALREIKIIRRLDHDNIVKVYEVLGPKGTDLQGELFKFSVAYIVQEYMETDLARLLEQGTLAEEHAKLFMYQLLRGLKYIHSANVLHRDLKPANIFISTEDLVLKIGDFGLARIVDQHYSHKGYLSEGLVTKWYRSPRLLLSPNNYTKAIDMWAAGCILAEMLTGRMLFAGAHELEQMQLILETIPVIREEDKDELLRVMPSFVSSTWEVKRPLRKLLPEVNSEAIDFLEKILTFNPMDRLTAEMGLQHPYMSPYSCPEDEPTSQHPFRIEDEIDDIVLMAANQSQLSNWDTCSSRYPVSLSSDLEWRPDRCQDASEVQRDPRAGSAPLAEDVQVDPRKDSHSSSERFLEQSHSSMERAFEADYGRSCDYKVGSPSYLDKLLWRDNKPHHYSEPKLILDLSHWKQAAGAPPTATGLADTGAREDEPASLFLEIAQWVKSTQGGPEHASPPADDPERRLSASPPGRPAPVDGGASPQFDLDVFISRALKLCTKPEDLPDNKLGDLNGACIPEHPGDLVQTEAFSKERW
UniProt Q16288, whole entry, looked up: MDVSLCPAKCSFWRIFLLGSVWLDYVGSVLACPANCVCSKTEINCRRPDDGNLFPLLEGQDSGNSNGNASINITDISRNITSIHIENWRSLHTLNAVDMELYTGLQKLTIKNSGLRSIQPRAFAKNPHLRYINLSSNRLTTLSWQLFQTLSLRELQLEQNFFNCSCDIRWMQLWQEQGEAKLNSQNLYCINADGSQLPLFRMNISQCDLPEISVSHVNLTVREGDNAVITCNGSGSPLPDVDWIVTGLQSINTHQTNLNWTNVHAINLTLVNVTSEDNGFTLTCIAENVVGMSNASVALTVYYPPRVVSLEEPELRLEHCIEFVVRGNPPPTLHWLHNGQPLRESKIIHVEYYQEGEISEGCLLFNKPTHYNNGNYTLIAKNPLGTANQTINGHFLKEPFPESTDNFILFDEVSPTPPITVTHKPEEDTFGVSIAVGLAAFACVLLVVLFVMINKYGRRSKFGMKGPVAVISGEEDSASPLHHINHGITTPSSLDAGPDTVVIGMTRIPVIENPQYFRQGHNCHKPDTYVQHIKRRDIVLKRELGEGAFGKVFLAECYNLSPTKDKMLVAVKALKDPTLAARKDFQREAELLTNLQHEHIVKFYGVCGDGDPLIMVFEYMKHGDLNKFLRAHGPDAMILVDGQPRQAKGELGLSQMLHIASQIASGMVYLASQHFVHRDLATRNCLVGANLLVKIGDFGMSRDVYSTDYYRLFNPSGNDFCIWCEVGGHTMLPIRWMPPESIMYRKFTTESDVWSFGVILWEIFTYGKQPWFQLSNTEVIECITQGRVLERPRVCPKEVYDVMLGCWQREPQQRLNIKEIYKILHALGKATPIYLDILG
UniProt Q96KB5: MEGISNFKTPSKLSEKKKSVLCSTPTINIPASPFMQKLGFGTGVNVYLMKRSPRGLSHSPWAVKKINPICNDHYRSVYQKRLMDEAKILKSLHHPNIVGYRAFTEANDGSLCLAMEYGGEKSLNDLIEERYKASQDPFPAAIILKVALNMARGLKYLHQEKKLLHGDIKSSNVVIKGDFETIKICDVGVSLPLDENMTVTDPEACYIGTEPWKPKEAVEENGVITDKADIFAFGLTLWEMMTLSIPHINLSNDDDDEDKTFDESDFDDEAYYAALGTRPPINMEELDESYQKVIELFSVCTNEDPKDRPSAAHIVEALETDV
UniProt P09619, whole entry: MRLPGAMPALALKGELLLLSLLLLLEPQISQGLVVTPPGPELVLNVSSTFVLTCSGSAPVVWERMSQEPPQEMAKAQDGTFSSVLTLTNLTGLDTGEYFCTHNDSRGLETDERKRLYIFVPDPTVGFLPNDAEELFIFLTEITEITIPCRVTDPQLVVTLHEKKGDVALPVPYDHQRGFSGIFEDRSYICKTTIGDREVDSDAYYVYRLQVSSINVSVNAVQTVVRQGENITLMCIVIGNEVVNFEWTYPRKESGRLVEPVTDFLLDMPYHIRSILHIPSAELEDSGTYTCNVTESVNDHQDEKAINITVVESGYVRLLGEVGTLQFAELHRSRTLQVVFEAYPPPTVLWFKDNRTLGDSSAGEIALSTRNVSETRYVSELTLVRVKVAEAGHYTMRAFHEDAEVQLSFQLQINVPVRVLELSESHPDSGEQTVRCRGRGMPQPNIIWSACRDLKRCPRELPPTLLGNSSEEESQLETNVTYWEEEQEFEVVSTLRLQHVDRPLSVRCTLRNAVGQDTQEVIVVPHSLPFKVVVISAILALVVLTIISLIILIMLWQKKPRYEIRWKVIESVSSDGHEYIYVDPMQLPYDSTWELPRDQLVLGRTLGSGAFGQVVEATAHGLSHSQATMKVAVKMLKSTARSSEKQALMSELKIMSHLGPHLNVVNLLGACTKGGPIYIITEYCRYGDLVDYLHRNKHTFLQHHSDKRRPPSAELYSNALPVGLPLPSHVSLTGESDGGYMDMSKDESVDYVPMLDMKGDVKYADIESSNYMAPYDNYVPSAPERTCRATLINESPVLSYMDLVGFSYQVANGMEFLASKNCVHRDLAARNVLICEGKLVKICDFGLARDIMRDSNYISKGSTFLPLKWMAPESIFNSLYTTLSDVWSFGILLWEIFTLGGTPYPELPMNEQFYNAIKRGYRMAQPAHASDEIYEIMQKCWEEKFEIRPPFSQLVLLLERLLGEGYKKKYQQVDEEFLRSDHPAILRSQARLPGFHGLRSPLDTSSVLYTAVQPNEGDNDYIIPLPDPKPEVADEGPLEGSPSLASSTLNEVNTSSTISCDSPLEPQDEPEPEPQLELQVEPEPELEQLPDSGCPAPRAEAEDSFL
UniProt Q15118, whole entry, looked up: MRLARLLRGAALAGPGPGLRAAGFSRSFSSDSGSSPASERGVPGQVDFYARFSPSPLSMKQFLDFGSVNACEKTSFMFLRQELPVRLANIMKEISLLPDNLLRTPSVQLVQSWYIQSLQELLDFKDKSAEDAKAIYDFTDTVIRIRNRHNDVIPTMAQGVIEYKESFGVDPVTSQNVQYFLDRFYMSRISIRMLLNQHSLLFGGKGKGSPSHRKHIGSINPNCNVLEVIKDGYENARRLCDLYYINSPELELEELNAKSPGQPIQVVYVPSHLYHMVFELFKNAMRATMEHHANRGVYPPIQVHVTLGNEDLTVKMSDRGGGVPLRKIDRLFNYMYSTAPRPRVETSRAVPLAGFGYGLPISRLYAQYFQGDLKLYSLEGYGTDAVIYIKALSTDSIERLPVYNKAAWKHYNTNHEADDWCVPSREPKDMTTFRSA

Legend:
Test in all cases: kinase-Nluc reporter destabilization hit call (1 = scored as downregulated) (binary); higher = compound decreases kinase abundance
Settings in all cases: K562; 2-18 h
[1] = molecular target: IRAK3 (UniProt Q9Y616)
[2] = molecular target: JAK1 (UniProt P23458)
[3] = molecular target: LCK (UniProt P06239)
[4] = molecular target: LIMK1 (UniProt P53667)
[5] = molecular target: LIMK2 (UniProt P53671)
[6] = molecular target: LMTK2 (UniProt Q8IWU2)
[7] = molecular target: LYN (UniProt P07948)
[8] = molecular target: MAP2K1 (UniProt Q02750)
[9] = molecular target: MAP2K2 (UniProt P36507)
[10] = molecular target: MAP4K2 (UniProt Q12851)
[11] = molecular target: MAPK1 (UniProt P28482)
[12] = molecular target: MAPK4 (UniProt P31152)
[13] = molecular target: MAPKAPK2 (UniProt P49137)
[14] = molecular target: MKNK1 (UniProt Q9BUB5)
[15] = molecular target: NTRK2 (UniProt Q16620)
[16] = molecular target: NTRK3 (UniProt Q16288)
[17] = molecular target: PAK4 (UniProt O96013)
[18] = molecular target: PBK (UniProt Q96KB5)
[19] = molecular target: PDGFRB (UniProt P09619)
[20] = molecular target: PDK1 (UniProt Q15118)

Measured: kinase-Nluc reporter destabilization hit call

O=c1cc(CN2CCOCC2)occ1OCCCCCSc1ccnc2cc(C(F)(F)F)ccc12 (10 µM)
inactive: [1] 0 | [2] 0 | [3] 0 | [4] 0 | [5] 0 | [6] 0 | [7] 0 | [8] 0 | [9] 0 | [10] 0 | [11] 0 | [12] 0 | [13] 0 | [14] 0 | [15] 0 | [16] 0 | [17] 0 | [18] 0 | [19] 0 | [20] 0

Cc1cc(Nc2ncnc3ccc(NC4=NC(C)(C)CO4)cc23)ccc1Oc1ccn2ncnc2c1 [Tucatinib] (2.5 µM)
inactive: [1] 0 | [2] 0 | [3] 0 | [4] 0 | [5] 0 | [6] 0 | [7] 0 | [8] 0 | [9] 0 | [10] 0 | [11] 0 | [12] 0 | [13] 0 | [14] 0 | [15] 0 | [16] 0 | [17] 0 | [18] 0 | [19] 0 | [20] 0

CNc1nc(Nc2ccc(C(=O)N3CCOCC3)cc2OC)nc2[nH]cc(Cl)c12 (2.5 µM)
inactive: [1] 0 | [2] 0 | [3] 0 | [4] 0 | [5] 0 | [6] 0 | [7] 0 | [8] 0 | [9] 0 | [10] 0 | [11] 0 | [12] 0 | [13] 0 | [14] 0 | [15] 0 | [16] 0 | [17] 0 | [18] 0 | [19] 0 | [20] 0

CC#CC(=O)N1CC[C@@H](n2c(=O)n(-c3ccc(Oc4ccccc4)cc3)c3c(N)ncnc32)C1 [Tirabrutinib (hydrochloride)] (10 µM)
inactive: [1] 0 | [2] 0 | [3] 0 | [4] 0 | [5] 0 | [6] 0 | [7] 0 | [8] 0 | [9] 0 | [10] 0 | [11] 0 | [12] 0 | [13] 0 | [14] 0 | [15] 0 | [16] 0 | [17] 0 | [18] 0 | [19] 0 | [20] 0

Cc1ccccc1-n1c([C@H](C)Nc2nc(N)nc3nc[nH]c23)nc2cccc(C)c2c1=O [CAL-130 (Hydrochloride)] (10 µM)
inactive: [1] 0 | [2] 0 | [3] 0 | [4] 0 | [5] 0 | [6] 0 | [7] 0 | [8] 0 | [9] 0 | [10] 0 | [11] 0 | [12] 0 | [13] 0 | [14] 0 | [15] 0 | [16] 0 | [17] 0 | [18] 0 | [19] 0 | [20] 0

Nc1nc(F)nc2c1ncn2[C@@H]1O[C@H](CO)[C@@H](O)[C@@H]1O [Fludarabine] (10 µM)
inactive: [1] 0 | [2] 0 | [3] 0 | [4] 0 | [5] 0 | [6] 0 | [7] 0 | [8] 0 | [9] 0 | [10] 0 | [11] 0 | [12] 0 | [13] 0 | [14] 0 | [15] 0 | [16] 0 | [17] 0 | [18] 0 | [19] 0 | [20] 0

C[C@@H]1CC[C@@H](Nc2nc(NC(C)(C)C)ncc2C(N)=O)C[C@H]1O (10 µM)
inactive: [1] 0 | [2] 0 | [3] 0 | [4] 0 | [5] 0 | [6] 0 | [7] 0 | [8] 0 | [9] 0 | [10] 0 | [11] 0 | [12] 0 | [13] 0 | [14] 0 | [15] 0 | [16] 0 | [17] 0 | [18] 0 | [19] 0 | [20] 0

Cc1c(-c2c(F)cc(C(N)=O)c3[nH]c4c(c23)CC[C@H](C(C)(C)O)C4)cccc1-n1c(=O)c2cccc(F)c2n(C)c1=O (2.5 µM)
inactive: [1] 0 | [2] 0 | [3] 0 | [4] 0 | [5] 0 | [6] 0 | [7] 0 | [8] 0 | [9] 0 | [10] 0 | [11] 0 | [12] 0 | [13] 0 | [14] 0 | [15] 0 | [16] 0 | [17] 0 | [18] 0 | [19] 0 | [20] 0

Nc1ncnc2c1c(-c1ccc(Oc3ccccc3)cc1)nn2C1CCCC1 (2.5 µM)
inactive: [1] 0 | [2] 0 | [3] 0 | [4] 0 | [5] 0 | [6] 0 | [7] 0 | [8] 0 | [9] 0 | [10] 0 | [11] 0 | [12] 0 | [13] 0 | [14] 0 | [15] 0 | [16] 0 | [17] 0 | [18] 0 | [19] 0 | [20] 0

Cn1nccc1Nc1nccc(-c2ccn([C@H](CO)c3ccc(Cl)c(F)c3)c(=O)c2)n1 [Ravoxertinib hydrochloride] (10 µM)
inactive: [1] 0 | [2] 0 | [3] 0 | [4] 0 | [5] 0 | [6] 0 | [7] 0 | [8] 0 | [9] 0 | [10] 0 | [11] 0 | [12] 0 | [13] 0 | [14] 0 | [15] 0 | [16] 0 | [17] 0 | [18] 0 | [19] 0 | [20] 0

C[C@@H]1CCN(C(=O)CC#N)C[C@@H]1N(C)c1ncnc2[nH]ccc12 [Tofacitinib (citrate)] (10 µM)
inactive: [1] 0 | [3] 0 | [4] 0 | [5] 0 | [6] 0 | [7] 0 | [8] 0 | [9] 0 | [10] 0 | [11] 0 | [12] 0 | [13] 0 | [14] 0 | [15] 0 | [16] 0 | [17] 0 | [18] 0 | [20] 0
